According to patent publication US7011972B2, “Fusion polypeptide comprising two ligand binding domains” (The Scripps Research Institute, priority 2000, dated 2006):
“Also recorded” adds a separate entry of the source. At least one compound was matched to its structure with a doubt left.

Key:
[1] = tested on: 10×B3-TATA-luc reporter (with B3-PR-VP16 and N1-ER-VP64) in HeLa cells; assay: Dual reporter assay, luciferase; assay type: cell-based; conditions: HeLa cells expressing B3-PR-VP16 and N1-ER-VP64
Description: RU486- and Tamoxifen-inducible promoter constructs. 10×C7-TATA, 10×B3-TATA, and 10×N1-TATA fragments were assembled from two pairs of complementary oligonucleotides each and cloned into Sac1-Xma1 linearized pGL3-Basic (Promega), upstream of the firefly luciferase coding region, creating the plasmids 10×C7-TATA-luc, 10×B3-TATA-luc, and 10×N1-TATA-luc. To generate the 10×N1-TATA-lacZ reporter construct, the lacZ coding region was excised from pβgal-Basic (Clontech) and used to replace the luciferase coding region of 10×N1-TATA-luc via Hind3-BamH1 digestion. Luciferase and βP-gal reporter assays. […] Concomitant regulation of multiple promoters. Zinc finger technology has made a large repertoire of DNA binding specificities available for use in protein engineering [[…]., and Barbas, C. F., III (1998) Proc. Natl. Acad. Sci. USA 95, 14628-14633; […]., and Barbas, C. F., III (1999) Proc. Natl. Acad. Sci. USA 96, 2758-2763; […]., and Barbas, C. F., III (2000) Proc. Natl. Acad. Sci. USA 97, 1495-1500]. The availability of different steroid hormone receptor-derived regulatory domains [Littlewood, T. D., Hancock, […]., Parker, M. G., and Evan, G. I. (1995) Nucl. […] The transfected cells were treated with either RU486 or 4-OHT and the luciferase and β-gal activities were monitored.

[2] = molecular target: T1, mER (aa281-599, G525R) LBD (Mus musculus, UniProt P19785, G525R); assay: Ligand crossreactivity on ER fusion, 10×C7-TATA-luc reporter; assay type: cell-based, murine; conditions: ER LBD fusion proteins
T1 construct: the point-mutated murine ER LBD coding region (aa281-599, G525R) was excised from pBabe/Myc-ER; expressed in transfected cells; host or cells: HeLa cells, effector plasmid in pcDNA3.1(+)Zeo
T1 sequence (P19785 281-599 G525R): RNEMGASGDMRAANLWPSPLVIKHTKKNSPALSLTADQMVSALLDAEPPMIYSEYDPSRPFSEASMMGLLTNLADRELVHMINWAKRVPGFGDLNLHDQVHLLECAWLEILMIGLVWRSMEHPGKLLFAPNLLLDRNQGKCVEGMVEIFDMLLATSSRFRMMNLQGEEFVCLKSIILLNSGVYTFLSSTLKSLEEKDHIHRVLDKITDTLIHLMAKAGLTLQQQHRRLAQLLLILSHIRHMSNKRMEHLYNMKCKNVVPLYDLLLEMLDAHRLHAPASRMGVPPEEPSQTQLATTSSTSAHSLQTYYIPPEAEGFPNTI

## CC#C[C@]1(O)CC[C@H]2[C@@H]3CCC4=CC(=O)CCC4=C3[C@@H](c3ccc(N(C)C)cc3)C[C@@]21C [RU486, 11β-(4-dimethylaminophenyl)-17β-hydroxy-17α-propinyl-4,9-e stradiene-3-one]
[1]
  luciferase expression (10×B3-TATA-luc): induced expression of luciferase
[2]
  crossreactivity between RU486 and ER: no detectable crossreactivity; also recorded: no detectable crossreaction
